# What follows is the remainder of the data, with few or none of the targets with a hit. This is a noisy data set. The entries are a selection whose mix differs from that of the whole data set.
# Protein sequences, listed by entry. Tags and fused reporters are not part of them. Lines headed by an entry give the natural chain unless they say otherwise; changes in a name come on top.
# UniProt O75369, whole entry, looked up: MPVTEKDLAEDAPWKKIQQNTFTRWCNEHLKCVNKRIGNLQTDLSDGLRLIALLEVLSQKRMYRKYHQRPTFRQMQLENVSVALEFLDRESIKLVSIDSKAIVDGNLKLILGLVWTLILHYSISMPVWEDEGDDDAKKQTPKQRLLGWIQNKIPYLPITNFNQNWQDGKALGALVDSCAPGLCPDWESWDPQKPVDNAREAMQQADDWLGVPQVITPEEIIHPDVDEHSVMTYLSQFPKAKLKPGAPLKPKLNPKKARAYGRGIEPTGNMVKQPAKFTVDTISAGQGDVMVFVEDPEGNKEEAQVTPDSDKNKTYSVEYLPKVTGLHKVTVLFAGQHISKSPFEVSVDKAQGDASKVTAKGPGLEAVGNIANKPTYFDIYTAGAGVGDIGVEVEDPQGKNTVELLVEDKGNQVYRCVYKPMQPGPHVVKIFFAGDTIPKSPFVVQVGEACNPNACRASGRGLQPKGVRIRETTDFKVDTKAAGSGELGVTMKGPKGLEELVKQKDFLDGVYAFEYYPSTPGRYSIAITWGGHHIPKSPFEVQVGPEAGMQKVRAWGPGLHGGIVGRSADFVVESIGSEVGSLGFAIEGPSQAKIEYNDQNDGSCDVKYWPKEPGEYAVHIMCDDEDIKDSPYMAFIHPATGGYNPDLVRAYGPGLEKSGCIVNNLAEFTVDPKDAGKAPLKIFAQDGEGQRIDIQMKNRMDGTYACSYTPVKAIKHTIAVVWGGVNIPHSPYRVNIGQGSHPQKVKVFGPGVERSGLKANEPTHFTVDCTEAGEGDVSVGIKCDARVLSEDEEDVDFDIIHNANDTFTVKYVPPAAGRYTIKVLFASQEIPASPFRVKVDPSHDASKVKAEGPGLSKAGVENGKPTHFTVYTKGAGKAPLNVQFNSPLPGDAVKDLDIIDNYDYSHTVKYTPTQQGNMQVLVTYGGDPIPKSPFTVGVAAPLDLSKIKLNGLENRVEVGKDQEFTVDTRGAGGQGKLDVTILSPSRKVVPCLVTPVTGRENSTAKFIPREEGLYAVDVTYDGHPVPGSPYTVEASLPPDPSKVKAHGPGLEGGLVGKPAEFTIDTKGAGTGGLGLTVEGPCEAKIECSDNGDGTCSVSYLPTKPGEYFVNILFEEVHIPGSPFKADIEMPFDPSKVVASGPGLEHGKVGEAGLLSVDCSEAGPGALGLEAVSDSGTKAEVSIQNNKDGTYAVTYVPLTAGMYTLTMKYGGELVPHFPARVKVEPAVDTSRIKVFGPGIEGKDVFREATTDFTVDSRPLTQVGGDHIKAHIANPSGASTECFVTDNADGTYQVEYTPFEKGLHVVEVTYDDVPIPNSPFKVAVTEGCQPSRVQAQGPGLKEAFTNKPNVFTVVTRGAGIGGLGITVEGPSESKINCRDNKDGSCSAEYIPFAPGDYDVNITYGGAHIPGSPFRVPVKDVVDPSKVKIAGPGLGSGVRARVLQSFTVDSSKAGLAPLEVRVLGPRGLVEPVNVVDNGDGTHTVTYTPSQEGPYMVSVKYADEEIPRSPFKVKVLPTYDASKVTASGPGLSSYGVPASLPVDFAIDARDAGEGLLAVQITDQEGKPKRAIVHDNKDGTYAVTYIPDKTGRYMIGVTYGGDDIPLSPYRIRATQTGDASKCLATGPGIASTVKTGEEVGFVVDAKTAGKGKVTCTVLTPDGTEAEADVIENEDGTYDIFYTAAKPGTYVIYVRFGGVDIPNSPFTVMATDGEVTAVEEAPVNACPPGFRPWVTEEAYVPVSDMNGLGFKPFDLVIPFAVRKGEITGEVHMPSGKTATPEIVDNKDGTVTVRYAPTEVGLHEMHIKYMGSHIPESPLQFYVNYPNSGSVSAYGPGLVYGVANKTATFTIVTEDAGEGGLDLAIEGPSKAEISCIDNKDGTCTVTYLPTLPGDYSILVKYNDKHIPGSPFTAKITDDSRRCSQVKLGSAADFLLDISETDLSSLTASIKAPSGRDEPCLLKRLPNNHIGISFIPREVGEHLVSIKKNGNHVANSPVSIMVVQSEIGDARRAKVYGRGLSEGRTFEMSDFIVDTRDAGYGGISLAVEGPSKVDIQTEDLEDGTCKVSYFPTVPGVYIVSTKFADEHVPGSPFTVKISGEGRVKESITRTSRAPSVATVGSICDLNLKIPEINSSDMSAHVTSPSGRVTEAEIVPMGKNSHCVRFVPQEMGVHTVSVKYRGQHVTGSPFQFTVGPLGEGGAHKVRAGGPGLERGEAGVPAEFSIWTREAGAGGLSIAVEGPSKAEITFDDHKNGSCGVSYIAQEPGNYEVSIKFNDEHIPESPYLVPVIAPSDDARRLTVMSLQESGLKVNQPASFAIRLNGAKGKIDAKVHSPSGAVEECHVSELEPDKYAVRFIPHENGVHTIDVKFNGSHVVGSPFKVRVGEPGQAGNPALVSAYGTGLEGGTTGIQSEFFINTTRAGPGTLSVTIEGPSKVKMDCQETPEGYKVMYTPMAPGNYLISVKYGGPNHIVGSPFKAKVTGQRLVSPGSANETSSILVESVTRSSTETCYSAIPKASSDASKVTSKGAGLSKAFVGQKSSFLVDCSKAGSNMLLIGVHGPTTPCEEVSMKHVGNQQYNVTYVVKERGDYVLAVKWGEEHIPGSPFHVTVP
# UniProt O75116: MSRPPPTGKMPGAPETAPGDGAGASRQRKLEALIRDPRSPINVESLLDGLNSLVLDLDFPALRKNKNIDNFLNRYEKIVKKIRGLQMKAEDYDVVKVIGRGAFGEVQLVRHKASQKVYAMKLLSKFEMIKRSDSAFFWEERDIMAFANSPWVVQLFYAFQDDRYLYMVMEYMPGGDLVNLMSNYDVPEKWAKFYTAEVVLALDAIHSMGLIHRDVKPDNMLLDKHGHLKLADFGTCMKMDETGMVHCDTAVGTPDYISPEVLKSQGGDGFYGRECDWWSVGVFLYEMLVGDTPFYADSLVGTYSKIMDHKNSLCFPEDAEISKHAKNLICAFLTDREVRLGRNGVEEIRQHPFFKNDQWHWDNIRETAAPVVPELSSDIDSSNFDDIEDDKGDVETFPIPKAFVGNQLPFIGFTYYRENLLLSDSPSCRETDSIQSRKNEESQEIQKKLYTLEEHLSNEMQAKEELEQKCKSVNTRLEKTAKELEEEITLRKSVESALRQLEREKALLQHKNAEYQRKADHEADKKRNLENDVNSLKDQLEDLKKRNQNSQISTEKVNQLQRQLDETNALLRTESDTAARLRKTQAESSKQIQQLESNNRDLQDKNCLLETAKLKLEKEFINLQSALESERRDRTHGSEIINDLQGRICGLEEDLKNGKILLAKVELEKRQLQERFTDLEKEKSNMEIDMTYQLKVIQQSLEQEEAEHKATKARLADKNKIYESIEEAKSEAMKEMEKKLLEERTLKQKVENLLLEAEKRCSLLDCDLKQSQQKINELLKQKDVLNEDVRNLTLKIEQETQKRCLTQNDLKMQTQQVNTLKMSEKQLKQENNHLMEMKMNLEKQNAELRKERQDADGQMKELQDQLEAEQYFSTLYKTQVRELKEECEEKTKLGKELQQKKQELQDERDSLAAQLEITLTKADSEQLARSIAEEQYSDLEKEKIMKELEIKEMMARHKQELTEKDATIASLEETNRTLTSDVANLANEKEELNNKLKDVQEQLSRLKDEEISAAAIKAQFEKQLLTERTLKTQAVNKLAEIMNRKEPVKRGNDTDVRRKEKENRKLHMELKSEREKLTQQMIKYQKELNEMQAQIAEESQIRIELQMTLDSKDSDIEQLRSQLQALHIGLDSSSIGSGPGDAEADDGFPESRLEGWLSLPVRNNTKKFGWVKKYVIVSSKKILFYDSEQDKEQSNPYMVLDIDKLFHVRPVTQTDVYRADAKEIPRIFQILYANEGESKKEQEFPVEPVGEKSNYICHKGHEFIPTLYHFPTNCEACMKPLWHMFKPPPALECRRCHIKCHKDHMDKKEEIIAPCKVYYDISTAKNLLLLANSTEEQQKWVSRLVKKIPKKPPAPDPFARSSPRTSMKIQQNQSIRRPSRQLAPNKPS
# UniProt O75170: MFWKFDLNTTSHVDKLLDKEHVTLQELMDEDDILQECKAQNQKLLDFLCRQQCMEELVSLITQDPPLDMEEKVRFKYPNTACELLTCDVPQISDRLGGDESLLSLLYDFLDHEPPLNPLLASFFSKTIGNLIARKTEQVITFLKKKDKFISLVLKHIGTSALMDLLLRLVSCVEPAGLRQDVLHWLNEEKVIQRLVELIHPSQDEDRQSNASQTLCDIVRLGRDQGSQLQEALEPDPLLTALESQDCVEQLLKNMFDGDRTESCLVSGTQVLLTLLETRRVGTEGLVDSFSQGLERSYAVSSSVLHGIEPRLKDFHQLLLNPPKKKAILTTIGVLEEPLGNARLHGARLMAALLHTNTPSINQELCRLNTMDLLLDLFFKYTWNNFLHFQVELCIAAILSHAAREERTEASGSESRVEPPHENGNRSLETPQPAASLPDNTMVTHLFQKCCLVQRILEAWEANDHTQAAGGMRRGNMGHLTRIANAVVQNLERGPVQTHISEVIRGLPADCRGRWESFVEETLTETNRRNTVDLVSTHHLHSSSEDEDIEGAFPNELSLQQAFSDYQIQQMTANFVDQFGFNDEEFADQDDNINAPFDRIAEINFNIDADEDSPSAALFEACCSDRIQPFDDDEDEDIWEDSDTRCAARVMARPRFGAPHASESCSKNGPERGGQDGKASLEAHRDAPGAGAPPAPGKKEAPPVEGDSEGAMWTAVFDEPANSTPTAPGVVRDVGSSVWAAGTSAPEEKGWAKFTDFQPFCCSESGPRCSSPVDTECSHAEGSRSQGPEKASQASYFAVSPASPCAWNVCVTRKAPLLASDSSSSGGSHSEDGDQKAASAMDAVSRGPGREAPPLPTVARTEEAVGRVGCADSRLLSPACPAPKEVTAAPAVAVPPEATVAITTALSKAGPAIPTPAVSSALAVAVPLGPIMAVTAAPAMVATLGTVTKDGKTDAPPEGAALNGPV
# UniProt O60784, whole entry: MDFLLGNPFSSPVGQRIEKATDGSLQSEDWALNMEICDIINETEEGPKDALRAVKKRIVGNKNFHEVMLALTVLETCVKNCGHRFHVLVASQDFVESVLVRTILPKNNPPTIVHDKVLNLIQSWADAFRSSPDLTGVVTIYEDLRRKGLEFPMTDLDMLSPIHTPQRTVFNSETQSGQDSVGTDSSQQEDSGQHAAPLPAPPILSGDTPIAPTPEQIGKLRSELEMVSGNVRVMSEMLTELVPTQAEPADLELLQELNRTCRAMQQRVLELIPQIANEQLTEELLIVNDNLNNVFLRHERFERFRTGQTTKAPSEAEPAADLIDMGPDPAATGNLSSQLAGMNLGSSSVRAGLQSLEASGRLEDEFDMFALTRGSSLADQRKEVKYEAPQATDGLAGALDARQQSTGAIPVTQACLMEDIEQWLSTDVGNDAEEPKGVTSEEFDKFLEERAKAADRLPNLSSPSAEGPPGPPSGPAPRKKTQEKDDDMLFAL
# UniProt O60447: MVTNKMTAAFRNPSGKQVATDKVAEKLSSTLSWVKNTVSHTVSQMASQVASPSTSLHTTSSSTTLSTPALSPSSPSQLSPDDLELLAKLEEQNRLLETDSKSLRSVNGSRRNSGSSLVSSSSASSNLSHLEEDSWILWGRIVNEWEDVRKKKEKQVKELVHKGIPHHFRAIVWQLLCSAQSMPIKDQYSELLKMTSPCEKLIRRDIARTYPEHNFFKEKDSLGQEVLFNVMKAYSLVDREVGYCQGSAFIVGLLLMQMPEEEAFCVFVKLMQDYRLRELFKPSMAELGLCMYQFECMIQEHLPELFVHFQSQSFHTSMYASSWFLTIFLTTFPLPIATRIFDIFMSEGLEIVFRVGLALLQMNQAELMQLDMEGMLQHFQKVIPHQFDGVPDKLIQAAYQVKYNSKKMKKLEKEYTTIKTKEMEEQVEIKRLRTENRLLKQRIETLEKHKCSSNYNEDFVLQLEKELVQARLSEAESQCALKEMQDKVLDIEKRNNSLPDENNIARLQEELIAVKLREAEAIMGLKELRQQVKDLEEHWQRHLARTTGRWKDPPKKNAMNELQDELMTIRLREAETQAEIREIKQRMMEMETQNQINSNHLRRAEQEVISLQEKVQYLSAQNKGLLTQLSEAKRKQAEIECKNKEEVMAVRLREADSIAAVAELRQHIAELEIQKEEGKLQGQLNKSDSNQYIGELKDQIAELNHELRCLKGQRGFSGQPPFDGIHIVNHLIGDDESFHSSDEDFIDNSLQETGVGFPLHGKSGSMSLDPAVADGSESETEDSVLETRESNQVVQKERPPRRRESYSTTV
# UniProt O75607: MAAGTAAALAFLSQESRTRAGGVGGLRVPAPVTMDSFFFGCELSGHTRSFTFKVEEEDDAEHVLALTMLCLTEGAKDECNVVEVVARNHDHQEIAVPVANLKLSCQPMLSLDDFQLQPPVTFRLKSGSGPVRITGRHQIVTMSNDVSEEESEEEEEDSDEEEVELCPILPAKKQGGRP
# UniProt O75347: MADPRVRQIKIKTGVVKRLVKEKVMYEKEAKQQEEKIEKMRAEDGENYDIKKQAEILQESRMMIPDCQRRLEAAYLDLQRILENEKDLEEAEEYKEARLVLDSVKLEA
# Compound: COC(=O)/C=C/c1ccccc1 [methyl cinnamate]
# Assay: log2 ratio of iodoacetamide-alkyne labeling of the cysteine site, DMSO over compound (competition); higher = stronger covalent engagement of the cysteine by the compound, active = 1 or more
# Conditions: 500 µM; treatment time 1 h; system: HEK293T cell lysate
# How it was run: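 HEK293T lysate (2 mg/mL) was incubated with electrophile (500 µM) or vehicle for 1 h at ambient temperature and then with iodoacetamide alkyne for 1 h. Labelled proteins were clicked to sCIP-TMT reagents, pooled, digested, enriched on streptavidin and measured by Orbitrap Eclipse LC-MS/MS with FAIMS, with FragPipe quantification. The per-cysteine log2 competition ratio is mean control-channel reporter intensity over mean compound-channel reporter intensity. Across three replicates with duplicate channels, cysteines quantified in only one replicate were excluded.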
row,Target,log2 ratio of iodoacetamide-alkyne labeling
1,RECQL5 C664 (UniProt O94762),inactive: 0.472
2,ASNA1 C205 (UniProt O43681),inactive: -0.0495
3,CPNE3 C5 (UniProt O75131),inactive: 0.193
4,HNRNPR C292 (UniProt O43390),inactive: 0.123
5,DENR C13 (UniProt O43583),inactive: 0.272
6,AKAP8 C275 (UniProt O43823),inactive: 0.213
7,KATNA1 C491 (UniProt O75449),inactive: -0.134
8,UniProt O75521_C312,inactive: 0.24
9,GLRX3 C229 (UniProt O76003),inactive: 0.162
10,NME6 C163 (UniProt O75414),inactive: 0.153
11,BUB3 C129 (UniProt O43684),inactive: 0.0956
12,GLRX3 C46 (UniProt O76003),inactive: -0.415
13,DNAJB6 C275 (UniProt O75190),inactive: 0.0514
14,FLNB C455 (UniProt O75369),inactive: 0.432
15,RIPK2 C414 (UniProt O43353),inactive: 0.369
16,SYNCRIP C289 (UniProt O60506),inactive: 0.0303
17,WDHD1 C1008 (UniProt O75717),inactive: 0.143
18,CTNND1 C618 (UniProt O60716),inactive: 0.283
19,TBC1D4 C74 (UniProt O60343),inactive: 0.236
20,MAST3 C541 (UniProt O60307),inactive: 0.423

row,Target,log2 ratio of iodoacetamide-alkyne labeling
1,AP1G1 C353 (UniProt O43747),inactive: 0.547
2,PMPCB C265 (UniProt O75439),inactive: -0.266
3,ROCK2 C607 (UniProt O75116),inactive: 0.465
4,KATNA1 C314 (UniProt O75449),inactive: -0.0155
5,FLNB C2501 (UniProt O75369),inactive: 0.349
6,PSMD10 C4 (UniProt O75832),inactive: -0.142
7,RNGTT C419 (UniProt O60942),inactive: 0.213
8,FLNB C1617 (UniProt O75369),inactive: 0.152
9,UniProt O75170_C762,inactive: -0.115
10,UniProt O75934_C132,inactive: -0.103
11,SGTA C153 (UniProt O43765),inactive: -0.0128
12,UniProt O60232_C70,inactive: 0.305
13,PAPSS1 C360 (UniProt O43252),inactive: 0.148
14,UniProt O43776_C452,inactive: -0.00239
15,RNF40 C890 (UniProt O75150),inactive: 0.299
16,SART1 C560 (UniProt O43290),inactive: 0.341
17,SNRNP200 C1278 (UniProt O75643),inactive: 0.0377
18,TOM1 C37 (UniProt O60784),inactive: 0.19
19,EVI5 C451 (UniProt O60447),inactive: 0.148
20,SORBS3 C521 (UniProt O60504),inactive: 0.126

row,Target,log2 ratio of iodoacetamide-alkyne labeling
1,NPM3 C41 (UniProt O75607),inactive: -0.186
2,ZW10 C650 (UniProt O43264),inactive: 0.0466
3,UniProt O60664_C60,inactive: 0.305
4,SNX3 C140 (UniProt O60493),inactive: 0.184
5,ROCK2 C804 (UniProt O75116),inactive: 0.271
6,AQR C681 (UniProt O60306),inactive: 0.144
7,ULK1 C426 (UniProt O75385),inactive: 0.161
8,TBCA C67 (UniProt O75347),inactive: 0.249
9,TIPRL C14 (UniProt O75663),inactive: 0.185
10,SAP30 C184 (UniProt O75446),inactive: 0.453
11,ANKRD17 C210 (UniProt O75179),inactive: 0.126
12,CBR3 C143 (UniProt O75828),inactive: -0.0682
13,UniProt O43679_C207,inactive: 0.0988
14,DCTN3 C173 (UniProt O75935),inactive: 0.155
15,RAD21 C585 (UniProt O60216),inactive: 0.0722
16,SPAG9 C443 (UniProt O60271),inactive: 0.216
17,TBC1D4 C45 (UniProt O60343),inactive: 0.0286
18,HNRNPR C99 (UniProt O43390),inactive: 0.182
19,SGTA C129 (UniProt O43765),inactive: 0.232
20,OPA1 C551 (UniProt O60313),inactive: -0.068

# Shown tab-delimited: entries from further up.
row	Target	log2 ratio of iodoacetamide-alkyne labeling
2	ZW10 C650 (UniProt O43264)	inactive: 0.0466
3	UniProt O60664_C60	inactive: 0.305
4	SNX3 C140 (UniProt O60493)	inactive: 0.184
5	ROCK2 C804 (UniProt O75116)	inactive: 0.271
